From the supplement of paper PMC10331698
± gives the standard deviation of the averaged measurements. Small differences around the control level are noise.

What was measured:
Test in all cases: level (log10 ratio to DMSO vehicle control); higher = higher biomarker level / cell amount than vehicle control
[1] = compound: C=CC(=O)OCC(F)(F)C(F)(F)C(F)(F)C(F)(F)C(F)(F)C(F)(F)C(F)(F)C(F)F [1H,1H,9H-Perfluorononyl acrylate]; settings: 2200 nM; in DMSO
Protocol: (§1)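 BioMAP Diversity Plus panel of 12 human primary cell co-culture systems (3C, 4H, LPS, SAg, BT, BF4T, BE3C, CASM3C, HDF3CGF, KF3CT, MyoF, Mphg). Compounds were added 1 h before stimulation and left for 24 h (MyoF 48 h; BT 72 h for soluble read-outs or 6 d for IgG). Biomarkers were read by ELISA, cytotoxicity by SRB, PBMC viability and proliferation by Alamar Blue. Each well value was divided by the mean of 8 DMSO control wells on the same plate and log10 transformed; duplicate blinded samples were tested at 4 concentrations.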

[2] = compound: CCOC(=O)CC(=O)C(F)(F)C(F)(F)F [Ethyl pentafluoropropionyl acetate]; settings: 2200 nM; in DMSO
Protocol: as §1

[3] = compound: FC(F)(F)C(F)(F)C(F)(F)C(F)(F)C(F)(F)C(F)(F)C(F)(F)C(F)(F)CCS [2-(Perfluorooctyl)ethanthiol]; settings: in DMSO
Protocol: as §1

Perfluorooctanamidine = compound: N=C(N)C(F)(F)C(F)(F)C(F)(F)C(F)(F)C(F)(F)C(F)(F)C(F)(F)F [Perfluorooctanamidine]; settings: in DMSO
Protocol: as §1

[4] = compound: O=C(CC(=O)C(F)(F)C(F)(F)C(F)(F)F)c1cccs1 [(Perfluorobutyryl)-2-thenoylmethane]; settings: 2200 nM; in DMSO
Protocol: as §1

Perfluorodecanoic acid = compound: O=C(O)C(F)(F)C(F)(F)C(F)(F)C(F)(F)C(F)(F)C(F)(F)C(F)(F)C(F)(F)C(F)(F)F [Perfluorodecanoic acid]; settings: in DMSO
Protocol: as §1

Perfluorononanoic acid = compound: O=C(O)C(F)(F)C(F)(F)C(F)(F)C(F)(F)C(F)(F)C(F)(F)C(F)(F)C(F)(F)F [Perfluorononanoic acid]; settings: 2200 nM; in DMSO
Protocol: as §1

[5] = compound: O=C(O)C(F)(F)C(F)(F)C(F)(F)C(F)(F)C(F)(F)C(F)(F)C(F)(F)F [Ammonium perfluorooctanoate]; settings: 2200 nM; in DMSO
Protocol: as §1

Perfluorooctanoic acid = compound: O=C(O)C(F)(F)C(F)(F)C(F)(F)C(F)(F)C(F)(F)C(F)(F)C(F)(F)F [Perfluorooctanoic acid]; settings: 2200 nM; in DMSO
Protocol: as §1

[6] = compound: O=C(O)C(F)(F)OC(F)(F)C(F)(F)OC(F)(F)C(F)(F)OC(F)(F)C(F)(F)C(F)(F)C(F)(F)F [Perfluoro-3,6,9-trioxatridecanoic acid]; settings: 2200 nM; in DMSO
Protocol: as §1

[7] = compound: O=C(O)C(F)(F)OC(F)(F)C(F)(F)OC(F)(F)F [Perfluoro-3,6-dioxaheptanoic acid]; settings: 2200 nM; in DMSO
Protocol: as §1

[8] = compound: O=C(O)CCC(F)(C(F)(F)F)C(F)(F)F [4,4-bis(Trifluoromethyl)-4-fluoropropanoic acid]; settings: 2200 nM; in DMSO
Protocol: as §1

[9] = compound: OCC(F)(F)C(F)(F)C(F)(F)C(F)(F)C(F)(F)C(F)(F)C(F)(F)C(F)(F)CO [1H,1H,10H,10H-Perfluorodecane-1,10-diol]; settings: 2200 nM; in DMSO
Protocol: as §1

[10] = compound: OCC(F)(F)OC(F)(F)C(F)(F)OC(F)(F)C(F)(F)OC(F)(F)CO [1H,1H,11H,11H-Perfluorotetraethylene glycol]; settings: 2200 nM; in DMSO
Protocol: as §1

| Test System | level (log10) [1] | level (log10) [2] | level (log10) ([3]; 740 nM) | level (log10) ([3]; 2200 nM) | level (log10) (Perfluorooctanamidine; 2200 nM) | level (log10) (Perfluorooctanamidine; 6700 nM) | level (log10) (Perfluorooctanamidine; 20000 nM) | level (log10) (Perfluorooctanamidine; 60000 nM) | level (log10) [4] | level (log10) (Perfluorodecanoic acid; 2200 nM) | level (log10) (Perfluorodecanoic acid; 6700 nM) | level (log10) (Perfluorodecanoic acid; 20000 nM) | level (log10) (Perfluorononanoic acid) | level (log10) [5] | level (log10) (Perfluorooctanoic acid) | level (log10) [6] | level (log10) [7] | level (log10) [8] | level (log10) [9] | level (log10) [10] |
| --- | --- | --- | --- | --- | --- | --- | --- | --- | --- | --- | --- | --- | --- | --- | --- | --- | --- | --- | --- | --- |
| lMphg:CD62E/E-Selectin | -0.0125 ± 0.00071 | -0.0045 ± 0.026 | -0.015 ± 0.0071 | -0.005 ± 0.0071 | -0.008 ± 0.052 | 0.0065 ± 0.042 | 0.0655 ± 0.015 | 0.049 | -0.011 ± 0.075 | -0.0335 ± 0.021 | -0.026 ± 0.0028 | -0.0135 ± 0.011 | 0.011 ± 0.035 | -0.031 ± 0.027 | 0.026 ± 0.0099 | 0.0195 ± 0.04 | 0.018 ± 0.02 | -0.0115 ± 0.013 | -0.0125 ± 0.011 | -0.0365 ± 0.018 |
| CASM3C:CD106/VCAM-1 | -0.0385 ± 0.0078 | -0.027 ± 0.014 | 0.02 ± 0.028 | -0.0075 ± 0.0035 | 0.004 ± 0.052 | -0.0165 ± 0.00071 | -0.0195 ± 0.012 | -0.032 | 0.001 ± 0.023 | -0.009 ± 0.0042 | 0.0015 ± 0.0092 | -0.036 ± 0.0085 | -0.015 ± 0.0028 | -0.019 ± 0.034 | -0.0085 ± 0.074 | -0.0065 ± 0.025 | 0.044 ± 0.013 | -0.0585 ± 0.067 | 0.024 ± 0.013 | 0.0145 ± 0.0078 |
| HDF3CGF:CXCL8/IL-8 | -0.0015 ± 0.0064 | -0.0005 ± 0.00071 | -0.0035 ± 0.015 | 0.0005 ± 0.0035 | -0.0015 ± 0.0078 | 0.006 ± 0.0014 | 0.0135 ± 0.005 | 0.007 | 0.011 ± 0.0028 | -0.0015 ± 0.005 | 0.0065 ± 0.005 | 0.02 ± 0.011 | -0.0065 ± 0.015 | -0.002 ± 0.0099 | 0.0055 ± 0.0078 | 0.0115 ± 0.0064 | -0.0025 ± 0.00071 | 0.0315 ± 0.029 | 0.0035 ± 0.025 | 0.008 ± 0.021 |
| BT:sIL-17A | 0.068 ± 0.21 | -0.076 ± 0.064 | -0.094 ± 0.044 | -0.044 ± 0.079 | 0.148 ± 0.12 | 0.1795 ± 0.00071 | -0.145 ± 0.044 | -0.141 | -0.004 ± 0.073 | -0.062 ± 0.13 | -0.0525 ± 0.0092 | -0.0075 ± 0.17 | -0.0945 ± 0.27 | 0.0855 ± 0.029 | 0.094 ± 0.061 | -0.0045 ± 0.011 | -0.122 ± 0.028 | 0.054 ± 0.0014 | -0.105 ± 0.011 | -0.02 ± 0.05 |
